Among the data in paper PMC7298712 are binding values, retold here.

By UniProt entry, the sequences of proteins in these tests, tags left out.
UniProt Q68XM2: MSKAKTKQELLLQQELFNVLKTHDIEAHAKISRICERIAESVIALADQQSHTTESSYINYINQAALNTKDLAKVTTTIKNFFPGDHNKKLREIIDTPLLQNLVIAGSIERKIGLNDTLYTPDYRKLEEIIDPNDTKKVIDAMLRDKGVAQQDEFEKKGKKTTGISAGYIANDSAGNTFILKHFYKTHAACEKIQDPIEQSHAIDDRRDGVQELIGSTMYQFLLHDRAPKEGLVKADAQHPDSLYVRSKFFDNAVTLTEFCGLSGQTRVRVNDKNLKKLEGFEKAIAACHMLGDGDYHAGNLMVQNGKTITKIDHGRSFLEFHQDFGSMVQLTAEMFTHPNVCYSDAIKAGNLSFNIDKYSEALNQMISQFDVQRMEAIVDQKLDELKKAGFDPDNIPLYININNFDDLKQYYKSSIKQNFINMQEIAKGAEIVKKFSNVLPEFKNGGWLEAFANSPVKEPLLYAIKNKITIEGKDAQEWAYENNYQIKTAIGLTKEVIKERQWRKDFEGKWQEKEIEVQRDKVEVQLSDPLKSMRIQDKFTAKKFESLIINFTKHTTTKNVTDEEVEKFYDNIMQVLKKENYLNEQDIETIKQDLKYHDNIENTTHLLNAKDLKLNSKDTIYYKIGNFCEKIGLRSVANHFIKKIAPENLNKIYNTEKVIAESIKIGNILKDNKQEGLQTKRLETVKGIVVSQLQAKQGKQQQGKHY
UniProt Q14457: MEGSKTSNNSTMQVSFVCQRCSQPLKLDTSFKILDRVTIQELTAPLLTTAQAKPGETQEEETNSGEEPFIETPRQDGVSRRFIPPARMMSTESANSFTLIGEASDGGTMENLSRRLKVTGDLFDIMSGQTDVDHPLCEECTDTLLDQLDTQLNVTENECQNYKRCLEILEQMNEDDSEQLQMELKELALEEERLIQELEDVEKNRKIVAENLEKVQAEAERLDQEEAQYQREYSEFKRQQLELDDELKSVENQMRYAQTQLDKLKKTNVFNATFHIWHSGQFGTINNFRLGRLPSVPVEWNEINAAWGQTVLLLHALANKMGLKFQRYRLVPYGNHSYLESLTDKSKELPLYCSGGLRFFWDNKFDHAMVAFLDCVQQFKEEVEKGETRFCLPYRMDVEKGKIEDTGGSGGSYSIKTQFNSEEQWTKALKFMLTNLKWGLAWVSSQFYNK

These are yes or no findings as the source states them, for the method shown. Binding seen in cells or lysates may run through a third protein. Some results given as binding are weak or reduced against the parent protein; the word gives no strength.

Assay [1] concerns the target GFP-tagged codon-optimized full-length Risk1 WT (R. typhi) (UniProt Q68XM2). Description: co-IP.
Assay [2] addresses Beclin-1 (host, endogenously expressed) (human (endogenous in HeLa)) (UniProt Q14457). Description: co-IP.

In the case of “Beclin-1 (host, endogenously expressed) (from UniProt Q14457 1-450)”, the binding result in assay [1] was “binds”.

As for “Rickettsia intracellular secreted kinase-1 (Risk1) (from UniProt Q68XM2 1-707)”, the binding entry in assay [2] is recorded as “binds”.
